Measured values from patent publication US20180265934A1, “COINCIDENCE REPORTER GENE SYSTEM” (The United States of America, as represented by the …, priority 2013, published 2018).
For at least one compound, name, drawing or mass did not settle the structure.

What was measured:
4×CRE [1] = experiment: Sequential single-well NLuc-emGFP reporter assay (4×CRE-driven NLucP-P2A-emGFP); assay type: cell-based; details: 50 μM forskolin, 10 h
[2] = system: cAMP-response element (CRE) / CREB pathway; experiment: LOPAC1280 qHTS, 4×CRE-driven FLuc-P2A-RLuc coincidence reporter (pCI-6.24) in GripTite 293 MSR cells; assay type: cell-based; details: both reporters
Experimental: This protocol measures bioluminescence derived from both FLuc and RLuc expression from a single assay. […] Sixteen hours after transfection, cells were trypsinized and then dispensed at 2,000 cells/20 μL/well in 384-well tissue culture treated white/solid bottom plates (Greiner Bio-One North America, Monroe, N.C.). The assay plates were incubated at 37° C. for 10 hours before adding the DUAL-GLO detection reagent (Promega). Luminescence from luciferase activity was detected by using a VIEWLUX plate reader (PerkinElmer, Waltham, Mass.).
Sixteen hours after transfection, cells were trypsinized and then dispensed at 500 cells/4 μL/well in 1,536-well tissue culture treated white/solid bottom plates (Greiner Bio-One North America) using a multidrop combi dispenser (Thermo Fisher Scientific). […] The assay plates were incubated at 37° C. for 10 hours before adding the DUAL-GLO detection reagent (3.5 μL+3.5 μL for each well) (Promega). Luminescence from luciferase activity was detected by using VIEWLUX (PerkinElmer). Each experimental plate contained forskolin as a positive control and DMSO as a negative control. Percentage activity was defined as the percentage signal relative to forskolin (100%) and DMSO (0%).

[3] = system: cAMP-response element (CRE), adenylyl cyclase signaling; experiment: Compound test, 24-point titration, 4×CRE-driven FLuc-P2A-RLuc (pCI-6.24), 384-well; assay type: cell-based; details: pCI-6.24, 10 h
Experimental: For the compound test, forskolin, PTC124 and BTS were prepared in a 24-point intraplate titration format and pre-diluted in the cell culture medium. Purified pCI-6.24 construct was transfected into GRIPTITE 293 MSR cells (Life Technologies). Sixteen hours post transfection, cells were trypsinized and then dispensed at 2,000 cells/15 μL/well in 384-well tissue culture treated white/solid bottom plates (Greiner Bio-One North America). Five μL of pre-diluted compound was transferred into assay plates, resulting in a final concentration ranging from 0.027 nM to 227 μM (forskolin) and 0.011 nM to 91 μM (PTC124 and BTS). The assay plates were incubated at 37° C. for 10 hours. FLuc and RLuc activities were then detected using DUAL-GLO reagent (Promega) and a VIEWLUX plate reader (PerkinElmer). Concentration-response curves and concentrations of half-maximal activity (EC50) for each compound were generated by using PRISM 4 software (GraphPad Software, Inc., La Jolla, Calif.).

4×CRE [4] = experiment: Sequential single-well FLuc-emGFP reporter assay (4×CRE-driven FLuc-P2A-emGFP, pCI-6.25); assay type: cell-based; details: 50 μM forskolin, 10 h
[5] = system: PARK2 (Parkin) gene expression; experiment: Compound library screening, Parkin coincidence reporter cell line (FLuc-P2A-NLuc in PARK2 locus, BE(2)-M17 cells), 1536-well; assay type: cell-based, human; details: 24 h, titration
Experimental: Construction of the Parkin coincidence reporter cell line by TALEN-mediated genome editing was carried out as follows. To generate a double-strand cleavage of the genomic DNA in the first codon of the PARK2 gene, constructs encoding transcription activator-like effector nuclease (TALEN) pairs (Right and Left) encoding components of the heterodimeric FokI nuclease were generated as described by Huang et al., Nature Biotechnology, 29: 699-700 (2011). The TALEN pair was designed to generate a double-strand cleavage at or near the first translation codon (ATG) within the Parkin gene. […]
Compound library screening in 1536-well plates was carried out as follows. […] After a 24 hour incubation in the tissue culture incubator, the volume in each well of both plates was reduced to 2 μL with a microplate aspiration system (BioTek) and then 2 μL of Firefly Luciferase assay reagent (Promega) was added to every well each plate and luminescent signal from each well of each plate was measured on a VIEWLUX plate reader (PerkinElmer). Following the first read, 2 μL of NanoLuc assay reagent (Promega) including a proprietary firefly luciferase inhibitor (to quench the firefly reaction) was added to every well of each plate. After a second 15 minute incubation at room temperature, the NanoLuc signal from each well of each plate was measured on the VIEWLUX. […]

Row | SMILES | reporter output vs DMSO (4×CRE [1]) | FLuc and RLuc signal outputs in the screen [2] | activity when the biocircuit was under control of 4×CRE [3] | reporter output vs DMSO (4×CRE [4]) | coincident reporter response (FLuc and NLuc) [5] | signal obtained through reporter interference [5]
1 | C=C[C@@]1(C)CC(=O)[C@]2(O)[C@@]3(C)[C@@H](O)CCC(C)(C)[C@@H]3[C@H](O)[C@H](OC(C)=O)[C@@]2(C)O1 [cpd 19, Forkskolin] | greater RLU values | coincident FLuc and RLuc signal outputs | displaying activity | greater RLU values |  | 
2 | COCCOC(=O)C1=C(C)NC(C)=C(C(=O)OC(C)C)C1c1cccc([N+](=O)[O-])c1 (stereo not drawn) [Nimodipine] |  |  |  |  | do not elicit a coincident reporter response | NLuc signal is obtained through reporter interference
